From publication PMC6261950
These are yes or no findings as the source states them, for the method shown. Binding seen in cells or lysates may run through a third protein. Some binding calls cover weakened binding; strength is not graded here.

Molecular target: H2AX (human (endogenous in 293T and HTB126)) (UniProt P16104)
Test: co-IP; endogenous proteins in 293T lysate; immunoprecipitation with anti-H2AX or anti-p53 antibody, Western blotting; cells also transfected with vector, circ-Ccnb1, control oligo or p53 siRNA

binding: binds
Substance: Bclaf1 (from UniProt Q9NYF8 1-920)
